# Primary screen of a compound library

Results are given as percent effect. The controls that fix the scale are not given in the record; negative values are as filed. This is an unselected part of the compounds tested. A dash means the value is not listed here; it may have been measured.

A: 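Whole-cell assay for inhibitors of Mycobacterium tuberculosis growth, labelled Cornell in the record; the read-out is not stated. The concentration is filed as 10 mM, unlikely as a test dose, so the dose is not known. Higher means stronger inhibition (inferred from two other growth screens of the library). Size under these conditions: about 53,000 compounds, about 900 of them at 50% or above in at least one test.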
B: 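Assay on Mycobacterium tuberculosis, filed only as a heat shock assay from Cornell; the read-out is not stated. The concentration is filed as 10 mM, unlikely as a test dose, so the dose is not known. Direction is inferred from retests: higher values go with stronger inhibition. Of about 69,000 compounds tested this way, about 930 (1.4%) reached 50% or more in at least one test.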

structure	A	B
CC(C)c1nn(C)cc1CNCc1cccnc1N(C)C.Cl	-9.037%	4.164%
CCN(CC)Cc1cc(C(=O)N2CCCC(CC)(C(=O)O)C2)c(C)o1 (stereo not drawn)	-24.39%	7.13%
C=C(C)COc1ccccc1CN1CCC(NC(C)=O)CC1	-	-20.31%
Cc1cc2ncn(C(=O)N3CCCCC3)c2cc1C	24%	1.997%
CC(C(=O)NCc1ccnc(N2CCCC2)c1)n1cncn1 (stereo not drawn)	-	4.027%
CN(C)C(=O)CN1C(=O)CCC12CCN(Cc1cccn1C)CC2.O=C(O)C(F)(F)F	20.8%	-14.93%
O=C(O)C(F)(F)F.O=C(O)C(F)(F)F.[H][C@@]12CC(=O)N(Cc3cccc(C)n3)[C@@]1([H])CCN2Cc1ccc(OC)cc1	2.472%	-9.968%
CN(C)C(C(=O)Nc1nccs1)c1c(F)cccc1Cl (stereo not drawn)	26.68%	71.6%
CCc1ccc(C(=O)N2CC[C@](C)(O)C(C)(C)C2)[nH]1	-0.5027%	6.649%
Cl.Fc1ccccc1OCCc1cc(C2CNCCO2)n[nH]1 (stereo not drawn)	-2.55%	-9.196%
OCC1(O)CCN(Cc2ccc(-c3cc[nH]n3)s2)CC1	8.413%	-5.914%
O=C(O)C(F)(F)F.O=C(O)C(F)(F)F.[H][C@@]12C[C@H](C(=O)N3CCCCO3)CN(Cc3cccnc3)[C@]1([H])CCO2	15.1%	6.65%
NC(=O)C1CCN(c2nccc(-c3c[nH]nc3C3CCCCC3)n2)CC1	12.19%	25.85%
Cc1ccc(N2Cc3cnn(C)c3C(COCC3CC3)C2)nn1.O=C(O)C(F)(F)F.O=C(O)C(F)(F)F (stereo not drawn)	-4.487%	49.24%
Cc1nnc(C2Cc3ccccc3CN2Cc2nc(C3CC3)no2)o1 (stereo not drawn)	3.499%	-2.33%
CCN1CC(C(=O)NCc2cccnc2-n2cccn2)CC1=O (stereo not drawn)	-	3.92%
COCC(=O)N(Cc1cccnc1)CC1CCN(C2CCCC2)CC1	21.68%	-23.67%
CNC(=O)[C@@H](CC(C)C)N1CCC[C@H]1C(=O)N(C)Cc1cccnc1.Cl.Cl	-	-14.71%
Cn1cnc2c1C(COCc1ccccc1)N(Cc1ccccn1)CC2.O=C(O)C(F)(F)F.O=C(O)C(F)(F)F (stereo not drawn)	21.83%	-33.04%
CC(C)(C(=O)N1CCCC(OCc2cccnc2)C1)n1cccc1 (stereo not drawn)	-19.17%	-3.225%
CCC(=O)N1CCN(c2ccc(C(=O)OC)cc2)CC1C (stereo not drawn)	6.911%	-42.72%
COc1cc(C)ccc1C(=O)N1CCC2(CCC(=O)N(C(C)C)C2)CC1	8.062%	19.19%
CCN(CC)S(=O)(=O)c1ccc(NC(=O)C(C)(C)C)cc1	-	-16.18%
O=C(c1n[nH]cc1Cl)N1CCCC(n2nnc3cc(F)ccc32)C1 (stereo not drawn)	31.91%	0.1297%
CCN(CC)S(=O)(=O)N(Cc1ccccn1)Cc1ccccc1C	-	-14.85%
CS(=O)(=O)c1cccc(C(=O)NCCCN2CCc3ccccc3C2)c1	-28.35%	-22.86%
CCCN1CCC(NC(=O)c2ccnc(SCC)c2)CC1	20.03%	8.796%
Cc1cccc2[nH]c(C3CCN(C(=O)c4cnc(O)cc4O)CC3)nc12	-1.363%	-7.771%
CS(=O)(=O)NC1CCN(C(=O)NCc2ccccn2)CC1	-	30.12%
CCc1nc2n(n1)CC(NCc1cc(OC)c3c(c1)OCO3)CC2 (stereo not drawn)	-	6.761%
CN(C)c1ccc(-c2ccnc3c2ccn3C)nn1	3.899%	-6.001%
N#CC1(C(=O)N2CCC(Nc3cccnn3)CC2)CCCCC1	-	-1.753%
COc1ccc(C(=O)NC[C@H]2COCc3nc4cc(C)ccc4n32)cc1	24.6%	-3.569%
Cc1cc(CN2CCCC(CNC(=O)Cn3cccn3)C2)oc1C (stereo not drawn)	21.7%	-10.47%
COCCN1C[C@@H](C)[C@@]2(COCCN(C(=O)c3ccoc3)C2)C1	5.708%	10.38%
COc1ccc2cc(C3CN(C(=O)COC(C)C)CCO3)ccc2c1 (stereo not drawn)	48.76%	-20.12%
CCOCCCC(=O)N1CCCC1c1nc(-c2ccccc2F)c[nH]1 (stereo not drawn)	-24.67%	10.47%
O=C(O)C(F)(F)F.[H][C@]12CCC[C@@H](CNc3ncccn3)[C@@]1([H])CN(Cc1cccnc1)C2	24.88%	-5.867%
CC(C)N1CCC(NC(=O)NCCC(=O)NCc2ccccc2)C1 (stereo not drawn)	-34.89%	-20.3%
O=C(O)c1cc2c(c(S(=O)(=O)N(CCCO)c3ccccc3)c1)CCC2	5.032%	9.964%
Cc1nn(C)c2ncc(S(=O)(=O)N3CCCC(C(N)=O)C3)cc12 (stereo not drawn)	5.874%	6.006%
CCN(Cc1cccc2c1OCO2)C(=O)Nc1ccccn1	-	-23.04%
O=C1CCC2(CCN(c3cccc(C(F)(F)F)n3)CC2)CN1CCO	18.04%	-7.473%
CC(c1cccc(S(N)(=O)=O)c1)N(C)CCOC(C)(C)C (stereo not drawn)	-	-26.5%

The last 4 entries again:

structure	A	B
Cc1nn(C)c2ncc(S(=O)(=O)N3CCCC(C(N)=O)C3)cc12 (stereo not drawn)	5.874%	6.006%
CCN(Cc1cccc2c1OCO2)C(=O)Nc1ccccn1	-	-23.04%
O=C1CCC2(CCN(c3cccc(C(F)(F)F)n3)CC2)CN1CCO	18.04%	-7.473%
CC(c1cccc(S(N)(=O)=O)c1)N(C)CCOC(C)(C)C (stereo not drawn)	-	-26.5%

Data taken from ChEMBL document CHEMBL3988442, “University of Dundee, Small-Polar-MMV Screening Library” (2021).